Measurements: patent US20030180784A1
These are yes or no findings as the source states them, for the method shown. Some entries that bind do so weakly or less than the wild type.

Chains of the proteins cited; added tags and fusions are not shown. Lines headed by an entry give the natural chain unless they say otherwise; changes in a name come on top. Residues count along the entry.
UniProt Q04721, residues 26-2471: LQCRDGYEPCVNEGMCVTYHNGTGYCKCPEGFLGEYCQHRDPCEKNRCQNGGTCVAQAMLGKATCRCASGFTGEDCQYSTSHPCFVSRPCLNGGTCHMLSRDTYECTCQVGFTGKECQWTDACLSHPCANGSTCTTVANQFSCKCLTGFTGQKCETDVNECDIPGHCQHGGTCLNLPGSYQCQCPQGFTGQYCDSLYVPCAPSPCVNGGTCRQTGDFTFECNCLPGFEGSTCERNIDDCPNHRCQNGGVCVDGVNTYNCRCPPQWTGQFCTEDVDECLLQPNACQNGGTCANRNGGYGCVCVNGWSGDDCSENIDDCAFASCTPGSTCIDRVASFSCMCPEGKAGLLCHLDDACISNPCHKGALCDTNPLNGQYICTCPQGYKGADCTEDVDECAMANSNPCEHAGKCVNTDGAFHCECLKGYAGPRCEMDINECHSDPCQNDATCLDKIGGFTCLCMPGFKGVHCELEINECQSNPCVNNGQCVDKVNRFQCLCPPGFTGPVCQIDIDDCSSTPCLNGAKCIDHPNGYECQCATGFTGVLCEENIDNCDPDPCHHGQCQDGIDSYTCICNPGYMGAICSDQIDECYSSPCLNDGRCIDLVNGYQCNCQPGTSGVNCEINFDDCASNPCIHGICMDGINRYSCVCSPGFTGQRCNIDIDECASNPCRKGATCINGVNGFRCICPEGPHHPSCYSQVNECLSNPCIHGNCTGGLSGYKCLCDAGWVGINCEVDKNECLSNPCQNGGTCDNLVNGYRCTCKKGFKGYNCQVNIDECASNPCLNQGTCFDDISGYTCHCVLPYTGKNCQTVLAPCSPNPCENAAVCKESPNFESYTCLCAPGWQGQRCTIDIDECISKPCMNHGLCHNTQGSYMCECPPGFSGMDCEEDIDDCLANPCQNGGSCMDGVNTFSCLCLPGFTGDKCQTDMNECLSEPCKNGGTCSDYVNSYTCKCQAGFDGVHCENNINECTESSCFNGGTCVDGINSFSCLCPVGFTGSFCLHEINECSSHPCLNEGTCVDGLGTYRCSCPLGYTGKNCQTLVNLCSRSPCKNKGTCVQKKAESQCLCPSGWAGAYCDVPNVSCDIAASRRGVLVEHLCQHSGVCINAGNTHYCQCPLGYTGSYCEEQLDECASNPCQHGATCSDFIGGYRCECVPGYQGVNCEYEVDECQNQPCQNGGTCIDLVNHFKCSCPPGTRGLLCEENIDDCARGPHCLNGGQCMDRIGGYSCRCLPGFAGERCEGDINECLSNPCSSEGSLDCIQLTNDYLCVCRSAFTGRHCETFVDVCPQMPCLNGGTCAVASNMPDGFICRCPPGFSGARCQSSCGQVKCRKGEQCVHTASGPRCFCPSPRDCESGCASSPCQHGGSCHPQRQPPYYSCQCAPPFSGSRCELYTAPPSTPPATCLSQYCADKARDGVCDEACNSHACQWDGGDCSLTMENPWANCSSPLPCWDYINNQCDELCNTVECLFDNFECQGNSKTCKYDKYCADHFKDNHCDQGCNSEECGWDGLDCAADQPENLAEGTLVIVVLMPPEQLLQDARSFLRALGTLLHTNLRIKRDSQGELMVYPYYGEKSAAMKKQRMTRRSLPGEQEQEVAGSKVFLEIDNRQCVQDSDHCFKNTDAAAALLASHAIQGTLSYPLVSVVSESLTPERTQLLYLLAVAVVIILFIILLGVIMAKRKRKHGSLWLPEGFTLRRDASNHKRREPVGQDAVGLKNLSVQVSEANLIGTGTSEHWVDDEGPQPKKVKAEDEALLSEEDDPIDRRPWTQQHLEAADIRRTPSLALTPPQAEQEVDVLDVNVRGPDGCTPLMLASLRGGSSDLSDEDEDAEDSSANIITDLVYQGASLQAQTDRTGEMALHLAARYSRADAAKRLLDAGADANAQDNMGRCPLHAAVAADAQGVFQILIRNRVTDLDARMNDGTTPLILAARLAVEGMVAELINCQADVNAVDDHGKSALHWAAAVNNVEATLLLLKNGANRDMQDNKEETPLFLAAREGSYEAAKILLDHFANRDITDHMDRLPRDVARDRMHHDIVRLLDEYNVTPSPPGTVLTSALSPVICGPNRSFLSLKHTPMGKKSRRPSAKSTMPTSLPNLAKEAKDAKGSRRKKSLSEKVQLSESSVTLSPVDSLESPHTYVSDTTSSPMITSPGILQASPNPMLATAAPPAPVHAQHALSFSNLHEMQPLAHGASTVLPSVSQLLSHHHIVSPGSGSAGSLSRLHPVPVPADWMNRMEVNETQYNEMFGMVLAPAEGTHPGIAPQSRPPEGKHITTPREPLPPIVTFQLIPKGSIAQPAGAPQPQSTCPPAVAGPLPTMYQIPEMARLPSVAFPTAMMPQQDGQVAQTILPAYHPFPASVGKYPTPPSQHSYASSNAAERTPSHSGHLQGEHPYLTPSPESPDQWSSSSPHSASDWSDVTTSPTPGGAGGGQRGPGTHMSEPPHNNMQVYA
UniProt Q9NR61: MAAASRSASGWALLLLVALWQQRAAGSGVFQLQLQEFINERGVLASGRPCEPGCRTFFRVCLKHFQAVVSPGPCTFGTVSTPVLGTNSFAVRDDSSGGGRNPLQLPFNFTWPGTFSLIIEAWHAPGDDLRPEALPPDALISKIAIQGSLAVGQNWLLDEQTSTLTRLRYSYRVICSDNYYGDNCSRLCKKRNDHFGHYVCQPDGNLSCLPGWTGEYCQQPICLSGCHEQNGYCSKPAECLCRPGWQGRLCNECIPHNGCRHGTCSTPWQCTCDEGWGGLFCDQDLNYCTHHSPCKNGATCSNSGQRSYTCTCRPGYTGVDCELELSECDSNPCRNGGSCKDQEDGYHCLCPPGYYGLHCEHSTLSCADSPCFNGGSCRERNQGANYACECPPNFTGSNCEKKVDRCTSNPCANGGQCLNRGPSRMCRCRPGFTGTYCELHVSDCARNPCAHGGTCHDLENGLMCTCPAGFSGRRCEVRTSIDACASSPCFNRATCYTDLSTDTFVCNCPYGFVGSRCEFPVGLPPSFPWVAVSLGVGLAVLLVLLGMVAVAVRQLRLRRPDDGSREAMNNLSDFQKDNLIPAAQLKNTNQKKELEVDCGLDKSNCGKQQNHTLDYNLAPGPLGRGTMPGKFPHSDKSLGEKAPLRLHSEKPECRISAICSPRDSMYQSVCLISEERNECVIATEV

Legend:
[1] = target: human Notch2 (full-length, expressed on transiently transfected 293T cells) (human) (UniProt Q04721); test: hDelta3-Fc at 10 µg/ml on Notch2-transfected 293T cells, FITC anti-human IgG, fluorescence microscopy; calcium-dependent, abolished by 5 mM EDTA
[2] = target: human Notch2 (full-length, expressed on transiently transfected 293T cells) (human) (UniProt Q04721); test: summary sentence of example 5.6 (hDelta3-Fc staining of Notch-transfected 293T cells)

Q: Which results are given for “hDelta3-Fc (extracellular domain of hDelta3 fused in frame to the Fc portion of immunoglobulin G) (from UniProt Q9NR61 18-529) (Fc fusion)”?
A: binding [1]: binds; binding [2]: binds
